No constants are given. Whether binding was seen depends on the method and setting. Some entries that bind do so weakly or less than the wild type.
Columns and labels:
[1] = biological target: T1, human Zcytor2 receptor expressed on transfected BHK cells (human) (UniProt Q14627); experiment: 125I-IL-13 binding to transfected BHK cells with or without cold IL-13, gamma counting
T1 sequence: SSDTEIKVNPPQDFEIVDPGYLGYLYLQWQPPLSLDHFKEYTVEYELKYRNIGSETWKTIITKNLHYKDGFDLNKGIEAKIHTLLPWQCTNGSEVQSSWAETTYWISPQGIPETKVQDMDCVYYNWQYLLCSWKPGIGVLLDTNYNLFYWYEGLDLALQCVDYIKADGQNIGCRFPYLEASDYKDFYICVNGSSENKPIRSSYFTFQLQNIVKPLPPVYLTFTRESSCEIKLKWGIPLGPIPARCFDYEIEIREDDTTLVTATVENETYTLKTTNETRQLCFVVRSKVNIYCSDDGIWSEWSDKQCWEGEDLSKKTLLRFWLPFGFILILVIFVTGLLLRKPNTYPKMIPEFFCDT

Protein sequences, listed by entry. Tags and fused reporters are not part of them. Residues count along the entry.
UniProt P35225, residues 35-146: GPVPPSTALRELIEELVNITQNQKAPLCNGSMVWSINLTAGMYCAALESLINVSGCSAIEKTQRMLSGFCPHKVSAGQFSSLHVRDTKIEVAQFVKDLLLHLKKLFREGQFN

[2] = biological target: T1, human Zcytor2 receptor expressed on transfected BHK cells (human); experiment: unlabeled IL-13 competing with 125I-IL-13 on BHK/Zcytor2 cells
[3] = biological target: T1, human Zcytor2 receptor expressed on transfected BHK cells (human); experiment: competition of unlabeled IL-13 against 125I-IL-13 on Zcytor2-transfected BHK cells

Row | binding [1] | binding [2] | binding [3] | Substance
1 | binds | – | – | 125I-IL-13 (from UniProt P35225 35-146) (ligand)
2 | – | binds | binds | unlabeled IL-13 (from UniProt P35225 35-146) (ligand)

— patent publication US20060110800A1 (ZymoGenetics, published 2006)
